Our source for the AC50 values is PubChem BioAssay AID1487 (National Center for Advancing Translational Sciences (NCATS), 2009).

This is one part of the list. Shown are side measurements of this screen, not its main read-out; they come without a call. Compounds called inactive in the main read-out are mostly missing here. Potencies come from curve fits of mixed quality, noted in brackets.

The term AC50 denotes the concentration giving half of the maximal activity seen.

This experiment is described as follows: qHTS Assay for Modulators of Lamin A Splicing. The note with it: HeLa LMNA splicing GFP/RFP minigene ratio, 48 h. The method in brief:
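Read-out is the ratio of GFP to DsRed2 object intensity, acquired by 488 nm laser-scanning cytometry on HeLa lamin A-EGFP minigene reporter cells. Compound incubation 48 hrs at 37 °C in Opti-MEM with 2% FBS; DMSO 0.5% final.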
In general terms: Quantitative high-throughput screening tests each substance at several concentrations.

Setting [1] is: measured here: GFP splicing reporter channel.
The mark [2] stands for this setting: measured here: RFP viability control channel.

Turning to `Cc1ccccc1Cn1c(CN2CCC(C(=O)NCc3cccnc3)CC2)cc2ccccc21`, the half-maximal activity concentration (AC50) reads like this: under setting [1], 11.2 µM [falling, single point]; under setting [2], 35.5 µM [falling, single point].

For the compound `Cc1ccc(C(CCN(Cc2ccccc2)C(=O)c2ccco2)c2ccco2)cc1` (stereo not given), the AC50 reads like this: under setting [1], 7.94 µM [rising, single point]; under setting [2], 15.8 µM [rising, single point].

Regarding `N#CC1=C(N)OC2=C(CCc3ccccc32)C1c1ccccc1` (stereo not given), the half-maximal activity concentration (AC50) under setting [2] is 0.891 µM [rising, full curve, poor fit].

On to `CCc1ccc(NC(=O)CCn2c(-c3ccc(OC)cc3)cc(C(C)=O)c2C)cc1`, for which, under setting [2], the AC50 was 14.1 µM [rising, partial curve, poor fit].

On to `CCOC(=O)N1CCN(C(=O)C2CCN(C(=O)c3cc4sccc4n3CC)CC2)CC1`, for which the AC50 is 35.5 µM [rising, single point] under setting [1] and 35.5 µM [rising, single point] under setting [2].

Regarding `COc1cc(OC)c(NC(=O)c2ccoc2C)cc1Cl`, the concentration at half-maximal activity (AC50) under setting [2] was 7.94 µM [rising, partial curve, poor fit].

Regarding `COc1ccc(-c2nc(C#N)c(NCc3ccco3)o2)cc1`, the AC50 under setting [2] was 6.31 µM [rising, partial curve, poor fit].

For the compound `CCCC(=O)Nc1ccccc1NC(=O)c1cc(OC)c(OC)c(OC)c1`, under setting [2], the half-maximal activity concentration (AC50) is 3.98 µM [rising, single point].

Consider `CCN(CCNC(=O)C1CCN(Cc2nc(-c3ccc(Cl)cc3)oc2C)CC1)c1ccccc1`, for which the AC50 reads like this: under setting [1], 35.5 µM [falling, single point]; under setting [2], 25.1 µM [falling, single point].

Take `O=C(NCCc1c[nH]c2ccccc12)c1ccc(S(=O)(=O)NCc2ccco2)cc1`: the AC50 under setting [2] is 22.4 µM [rising, single point].

`COc1ccc(OC)c(C(=O)CC2OC(=O)c3ccccc32)c1` (stereo not given): under setting [1], the concentration at half-maximal activity (AC50) is 35.5 µM [falling, single point].

As to `COc1ccc(/C=N/NC(=O)c2cccc([N+](=O)[O-])c2)cc1OC(=O)c1ccccc1`, the AC50 under setting [2] was 35.5 µM [rising, single point].

As for `COc1ccc(C)cc1-n1nnnc1SCc1nc2ccccc2s1`, the AC50 under setting [1] is 28.2 µM [rising, single point] and the half-maximal activity concentration (AC50) under setting [2] was 20 µM [rising, single point].

With `CC1=NN(c2cccc(Cl)c2)C(=O)C12CC(C)=C(C)CS2` (stereo not given), the AC50 under setting [2] was 14.1 µM [rising, single point].

Consider `Fc1ccc(Br)cc1C1C=C(c2ccc(Br)s2)Nc2ncnn21` (stereo not given), for which, under setting [2], the AC50 is 22.4 µM [rising, partial curve].

Consider `Cc1cccc(NC(=O)CC23CC4CC(C2)CC(n2nnc(C)n2)(C4)C3)c1`, for which, under setting [2], the half-maximal activity concentration (AC50) was 14.1 µM [rising, single point].

On to `CCN(CC)C(=O)Cn1c(=O)n(-c2ccc(Cl)c(Cl)c2)c(=O)c2c(C)c(C(=O)N(CC)CC)sc21`, for which the half-maximal activity concentration (AC50) under setting [1] was 0.447 µM [falling, full curve].

Regarding `CS(=O)(=O)N1CCc2cc(S(=O)(=O)Nc3ccc4c(c3)OCCO4)ccc21`, under setting [2], the AC50 is 7.08 µM [rising, partial curve].

On to `COc1cc(S(=O)(=O)NC2CCCC2)ccc1F`, for which the concentration at half-maximal activity (AC50) under setting [1] was 35.5 µM [falling, single point].

As to `CN(C(=S)Nc1ccc(SC(F)F)cc1)c1ccc(O)cc1`, the AC50 was 20 µM [rising, single point] under setting [1] and 25.1 µM [rising, partial curve] under setting [2].

In the case of `Cn1nnnc1SCCCNCc1ccc(Cl)cc1`, the half-maximal activity concentration (AC50) under setting [1] was 3.16 µM [rising, partial curve].

Turning to `CC(C)C(=O)N1CCN(c2ccccc2NC(=S)NC(=O)c2cccs2)CC1`, under setting [1], the AC50 was 2.82 µM [rising, full curve].

Take `O=C(NCc1ccc2c(c1)OCO2)c1ccc2c(c1)N(Cc1c(F)cccc1Cl)C(=O)CS2`: the half-maximal activity concentration (AC50) under setting [2] was 22.4 µM [rising, single point].

For `N#CCCN(Cc1cccnc1)C(=O)c1sc2cc(F)ccc2c1Cl`, the concentration at half-maximal activity (AC50) by setting is: under setting [1], 7.08 µM [rising, partial curve]; under setting [2], 12.6 µM [rising, partial curve].

Consider `Cc1cc(-c2ccccc2)n(-c2cc(N/N=C/c3ccccc3O)ncn2)n1`, for which the AC50 under setting [2] was 0.708 µM [rising, full curve].

For the compound `O=C(Nc1cccc(Cl)c1)N1CCN(C/C=C/c2ccccc2)CC1`, under setting [2], the AC50 was 12.6 µM [rising, single point].

As for `Cc1noc(C)c1COC(=O)c1cc(C)n(-c2ccccc2)c1C`, the concentration at half-maximal activity (AC50) under setting [2] was 10 µM [rising, partial curve].

For the compound `CC1CCN(CC(=O)Nc2ccccc2Sc2ccccc2)CC1`, the AC50 under setting [1] is 35.5 µM [rising, single point].

Turning to `COc1ccc(OCC(=O)NCCC2=CCCCC2)c([N+](=O)[O-])c1`, the AC50 under setting [1] is 0.00316 µM [rising, full curve, poor fit] and the AC50 under setting [2] was 4.47 µM [rising, partial curve, poor fit].

Regarding `CSCc1nc2scc(-c3ccccc3)c2c(=O)[nH]1`, the concentration at half-maximal activity (AC50) is, setting by setting: under setting [1], 0.1 µM [rising, full curve]; under setting [2], 0.112 µM [rising, full curve, poor fit].

For `CC(=O)Nc1ccc(S(=O)(=O)n2cnc3cc(C)c(C)cc32)cc1`, the AC50 under setting [1] was 0.0891 µM [rising, full curve, poor fit] and the AC50 under setting [2] is 0.0891 µM [rising, full curve, poor fit].

In the case of `COc1ccc(-c2c(C)c3ccc(O)c(CN4CCC(C)CC4)c3oc2=O)cc1OC`, the AC50 was 0.282 µM [rising, full curve] under setting [1] and 1 µM [rising, partial curve] under setting [2].

For `COc1ccc(-c2nc3cnc(N4CCOCC4)nc3n(CCc3ccccc3)c2=O)cc1`, the half-maximal activity concentration (AC50) under setting [2] is 12.6 µM [falling, single point].

With `CN(c1ccc(C(=O)Nc2ccc(Cl)cn2)cc1)S(=O)(=O)c1ccccc1`, the AC50 under setting [1] is 12.6 µM [rising, single point].

`O=C(CC1C(=O)NCCN1CC1CCCCC1)NCCc1ccc(F)cc1` (stereo not given): the AC50 by setting is: under setting [1], 35.5 µM [falling, single point]; under setting [2], 0.0251 µM [falling, full curve, poor fit].

For `O=C(/C=C/NCc1cccnc1)C(F)(F)C(F)(F)F`, the AC50 under setting [2] is 3.16 µM [falling, partial curve].

On to `CN(C)CCNC(=O)/C=C/c1cn(-c2ccccc2)nc1-c1cc2ccccc2oc1=O`, for which the concentration at half-maximal activity (AC50) under setting [2] is 35.5 µM [rising, single point].

With `CCN1CCN(c2oc(-c3ccc(COc4ccccc4C)o3)nc2C#N)CC1`, the AC50 was 15.8 µM [rising, single point] under setting [1] and 14.1 µM [rising, single point] under setting [2].

For the compound `O=C(O)c1ccccc1Sc1c([N+](=O)[O-])cc(C(F)(F)F)cc1[N+](=O)[O-]`, the AC50 under setting [2] was 0.158 µM [falling, full curve].

With `Cc1ccc(OCc2nc3c4c(ncn3n2)-c2ccccc2CC42CCCC2)cc1`, the concentration at half-maximal activity (AC50) under setting [2] is 5.62 µM [rising, single point].

Turning to `COc1ccc(C)cc1NC(=O)c1ccc(CN2CCN(c3ccccc3)CC2)cc1`, the concentration at half-maximal activity (AC50) runs as follows: under setting [1], 10 µM [rising, partial curve]; under setting [2], 20 µM [rising, single point].

For the compound `COc1ccc(Cn2ccc3nc(C)c(C(=O)Nc4cccc(SC)c4)cc3c2=O)cc1`, the concentration at half-maximal activity (AC50) under setting [2] is 11.2 µM [rising, single point].

Regarding `Oc1c(C(Nc2ccccn2)c2ccccc2F)ccc2cccnc12` (stereo not given), the AC50 under setting [2] was 11.2 µM [rising, partial curve, poor fit].

With `CCOC(=O)N1CCC(NC(=O)c2cc(C(=O)NCc3ccc(F)cc3)ccc2CO)CC1`, under setting [2], the AC50 is 35.5 µM [rising, single point].

`COCCn1c(=O)c(-c2ccccc2)nc2cnc(Oc3cccc(Cl)c3)nc21`: the AC50 under setting [1] is 12.6 µM [falling, partial curve].

`CCOC(=O)Cn1nc(C)c(NC(=O)c2ccc(Cl)c([N+](=O)[O-])c2)c1C`: the AC50 under setting [2] was 0.631 µM [falling, partial curve, poor fit].

With `CCCOc1ccc(-c2csc(N)n2)cc1[N+](=O)[O-]`, the half-maximal activity concentration (AC50) under setting [2] is 11.2 µM [rising, partial curve].

For `Cc1cccc(N(C(=O)c2nsc(Cl)c2Cl)C(C(=O)NC2CCCC2)c2ccc(O)cc2)c1C` (stereo not given), under setting [2], the AC50 is 31.6 µM [rising, single point].

As for `O=C(NC(=S)NCC1CCCO1)c1cccc([N+](=O)[O-])c1` (stereo not given), under setting [2], the AC50 is 0.00794 µM [rising, full curve, poor fit].

For `Nc1cnn(Cc2ccc(F)cc2)c1`, under setting [2], the concentration at half-maximal activity (AC50) was 0.141 µM [rising, full curve, poor fit].

Take `COc1ccc(N=c2scc(-c3ccc(S(=O)(=O)N4CCOCC4)cc3)n2CCCO)cc1`: the concentration at half-maximal activity (AC50) under setting [2] was 11.2 µM [rising, partial curve].

Regarding `CC(=O)c1ccc(NS(=O)(=O)c2ccc3c(c2)NC(=O)CCS3)cc1`, the AC50 reads like this: under setting [1], 35.5 µM [rising, single point]; under setting [2], 35.5 µM [rising, single point].

For `Nc1c2c(nc3ccc(Br)cc13)N(Cc1ccccc1)CC2`, the AC50 under setting [1] is 15.8 µM [rising, single point] and the AC50 under setting [2] was 11.2 µM [rising, partial curve, poor fit].

With `Cc1cccc(S(=O)(=O)c2cn(Cc3ccccc3)c3cc(N4CCCCC4)c(F)cc3c2=O)c1`, the AC50 under setting [1] is 12.6 µM [rising, single point].

As for `CCOC(=O)NC(=O)C(=CNNc1ncc(C(F)(F)F)cc1Cl)C(=O)NC(=O)OCC`, the concentration at half-maximal activity (AC50) was 3.55 µM [falling, single point] under setting [1] and 5.62 µM [falling, single point] under setting [2].

With `COc1ccc(-c2nc3sc(CCNC(=O)c4ccc(Br)o4)c(C)n3n2)cc1`, the concentration at half-maximal activity (AC50) under setting [2] is 15.8 µM [rising, single point].

For the compound `COc1cc(NC(=O)C2=C(N3CCOCC3)/C(=C\c3ccc(N(C)C)cc3)CCC2)cc(OC)c1OC`, the concentration at half-maximal activity (AC50) was 7.08 µM [rising, partial curve] under setting [1] and 7.08 µM [rising, partial curve] under setting [2].
